# The other results are listed elsewhere or left out. Further columns of the screen follow, without active or inactive calls. Compounds called inactive in the main read-out are mostly missing here. The note in brackets gives the kind of curve behind each potency; many fits are weak.
# Assay: Cell signaling CRE-BLA (Fsk stim)
# Conditions: CHO CRE-bla reporter (cAMP response element driving beta-lactamase), forskolin EC10, beta-lactamase ratio; measured here: 460 nm blue channel
# Procedure, shortened: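 CRE-bla CHO reporter cells treated with compound titration plus EC10 NKH 477 (water-soluble forskolin), incubated 3 h at 37 °C; CCF4 loading 2 h at room temperature, 460/530 nm emission ratio read, AC50 values derived for positive or negative modulators.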
row,Compound,AC50
1,CCN(CCCCN1C(=O)c2ccccc2C1=O)c1ccc2c(c1)C(=O)N(C)C2=O,"2 µM [rising, full curve]"
2,NC(=O)c1c(NC(=O)CSc2nnc(-c3ccco3)n2-c2ccccc2)sc2c1CCC2,"15.8 µM [rising, single point]"
3,CCN(CC)CCCN1C(=O)C(O)=C(C(=O)c2cc3ccccc3o2)C1c1ccccn1 (stereo not drawn),"25.1 µM [rising, single point]"
4,COc1cc(-c2ccccc2)nc(N)n1,"2 µM [rising, partial curve]"
5,CN1C(=O)c2ccccc2C(C(=O)NCCCN2CCCC2)C1c1c[nH]c2ccccc12 (stereo not drawn),"0.00794 µM [falling, full curve, poor fit]"
6,CC1(C)C(=O)Nc2ccccc2N1C(=O)COC(=O)C12CC3CC(CC(O)(C3)C1)C2,"15.8 µM [falling, partial curve, poor fit]"
7,COC(=O)[C@H](CCSC)NC(=O)N1CCN(c2cccc(C(F)(F)F)c2)CC1,"3.98 µM [falling, partial curve]"
8,CC1(C)OC(=O)C(=CNC(Cc2c[nH]c3ccccc23)C(=O)O)C(=O)O1 (stereo not drawn),"0.126 µM [falling, full curve]"
9,O=C(c1nsc(Cl)c1Cl)N1CCCCC1,"0.251 µM [rising, full curve]"
10,Cc1ccnc(-n2sc3ccccc3c2=O)n1,"3.98 µM [falling, single point]"
11,CC1CCCCN1C(=O)c1ccc(C(=O)N2CCCCC2C)cc1 (stereo not drawn),"0.00398 µM [falling, full curve]"
12,O=C(NCc1ccco1)c1ccc(CS(=O)(=O)Cc2ccc(Cl)cc2)o1,"1.26 µM [falling, partial curve, poor fit]"
13,CCOC(=O)c1ccc(CNC(=O)c2n[nH]c(=O)c3ccccc23)o1,"10 µM [rising, partial curve]"
14,O=c1oc2cc(Br)ccc2n1CSC1=NCCS1,"10 µM [falling, partial curve]"
15,COC(=O)[C@H](Cc1ccccc1)NC(=O)NCCc1ccc(S(N)(=O)=O)cc1,"5.01 µM [falling, partial curve]"
16,CCS(=O)(=O)N1CCC(C(=O)NCCc2ccc(OC)c(OC)c2)CC1,"10 µM [falling, partial curve]"
17,CCOC(=O)CSc1nnc(CNc2nc(-c3ccccc3)cs2)n1C,"0.00794 µM [falling, full curve, poor fit]"
18,CCCSc1nnc2nc3c(nn12)c1ccccc1n3C,"2.51 µM [rising, partial curve]"
19,Cc1cc2n(n1)C(c1ccccc1Cl)Nc1ccccc1-2 (stereo not drawn),"10 µM [rising, single point]"
20,COc1ccc(-c2nc3cnc(Nc4ccccc4)nc3n(CCC#N)c2=O)cc1,"0.501 µM [rising, full curve]"
21,CN(C(=O)COc1nnc(-c2cccs2)c(-c2cccs2)n1)c1ccccc1,"0.126 µM [rising, full curve, poor fit]"
22,O=S(=O)(NCc1csc(-c2ccccc2)n1)c1ccc(Cl)s1,"20 µM [falling, single point]"
23,Cc1nc2n(n1)CC(O)CS2 (stereo not drawn),"25.1 µM [falling, single point]"

row,Compound,AC50
1,Cc1cccc(N(CC(=O)Nc2c(C)n(C)n(-c3ccccc3)c2=O)S(C)(=O)=O)c1C,"1 µM [rising, single point]"
2,Cc1sc2nc(SCC(=O)N(C)C)[nH]c(=O)c2c1C,"15.8 µM [rising, single point]"
3,O=c1c2c3c(sc2nc2n1CCCCC2)CCCC3,"15.8 µM [rising, partial curve]"
4,c1ccc2c(c1)C(=NCC1CCCO1)NC2=NCC1CCCO1 (stereo not drawn),"12.6 µM [falling, single point]"
5,CC(=O)OC1c2c(ccc3ccc(=O)oc23)OC(C)(C)C1OC(=O)CC(C)C (stereo not drawn),"12.6 µM [rising, single point]"
6,CCCn1c(SCC(=O)Nc2ccccc2N2CCCCC2)nc2c1c(=O)n(C)c(=O)n2C,"6.31 µM [rising, partial curve]"
7,CC(C)n1c(SCCCc2ccccc2)nc2c1c(=O)[nH]c(=O)n2C,"5.01 µM [rising, partial curve]"
8,O=C(CCCSc1nnc(-c2cccs2)n1CC1CCCO1)c1ccccc1 (stereo not drawn),"5.01 µM [rising, single point]"
9,COC(=O)Nc1ccc2c(c1)N(C(=O)CCN1CCN3CCCC3C1)c1ccccc1CC2 (stereo not drawn),"3.16 µM [falling, full curve, poor fit]"
10,CC(C)C(OC(=O)CN1C(=O)COc2ccccc21)C(=O)NC1CCCC1 (stereo not drawn),"25.1 µM [falling, single point]"
11,COc1ccc(C(=O)CC(=O)O)c2c1C=CC(C)(C)O2,"0.398 µM [falling, full curve]"
12,CC(=O)N1CCc2cc(S(=O)(=O)NCCCN3CCN(Cc4ccccc4)CC3)ccc21,"7.94 µM [rising, single point]"
13,CCN(Cc1ccccc1)C(=O)Cn1c(=O)n(CC(=O)NCc2ccco2)c(=O)c2sccc21,"0.316 µM [falling, partial curve, poor fit]"
14,CCN(Cc1nc2ccccc2c(=O)[nH]1)Cc1cc(=O)oc2cc(C)c(C)cc12,"12.6 µM [rising, partial curve]"
15,CCCCS(=O)(=O)NC1=NCN(CCO)CN1,"0.0794 µM [falling, full curve, poor fit]"
16,CCCS(=O)(=O)N1CCC(C(=O)N2CCc3ccccc3C2)CC1,"0.00794 µM [falling, full curve, poor fit]"
17,C/C=C/CSc1nc2c(c(=O)[nH]c(=O)n2C)n1Cc1ccc(C)cc1,"10 µM [rising, partial curve]"
18,O=c1c(=O)n(O)c2ccccc2n1O,"2.51 µM [falling, partial curve]"
19,Cc1sc2ncnc(SCC#N)c2c1C,"10 µM [rising, partial curve]"
20,COc1ccc(-c2cc(-c3ccccc3)nc(N3CCCC3)n2)cc1OC,"3.16 µM [rising, partial curve]"
21,COc1cccc(Nc2ncc3nc(C)c(=O)n(-c4ccccc4)c3n2)c1,"12.6 µM [rising, single point]"
22,Cc1cccc(-c2nc3ccccc3c3nncn23)c1,"15.8 µM [rising, partial curve]"
23,COC(=O)CN(c1ccc(C)cc1)S(=O)(=O)c1ccc2c(c1)n(C)c(=O)c(=O)n2C,"0.126 µM [falling, full curve]"

# In a second layout: entries from further up
row	Compound	AC50
7	COC(=O)[C@H](CCSC)NC(=O)N1CCN(c2cccc(C(F)(F)F)c2)CC1	3.98 µM [falling, partial curve]
8	CC1(C)OC(=O)C(=CNC(Cc2c[nH]c3ccccc23)C(=O)O)C(=O)O1 (stereo not drawn)	0.126 µM [falling, full curve]
9	O=C(c1nsc(Cl)c1Cl)N1CCCCC1	0.251 µM [rising, full curve]

# (list continues)

row,Compound,AC50
1,CN(Cc1ccccc1)C(=O)CCC(=O)N(C)Cc1ccccc1,"0.794 µM [rising, partial curve]"
2,CC(C)c1nc(SCC(=O)Nc2ccc3c(c2)OCCO3)c2c(=O)n(C)c(=O)n(C)c2n1,"2 µM [rising, partial curve]"
3,Cn1c(=O)c2c(-c3ccccc3)n(-n3cnnc3)cc2n(C)c1=O,"25.1 µM [falling, single point]"
4,CC1S/C(=C(\C#N)C(N)=O)N(c2ccc(F)cc2)C1=O (stereo not drawn),"5.01 µM [falling, single point]"
5,COCCn1c(=O)c(-c2cccc(C#N)c2)nc2cnc(Oc3cccc(Cl)c3)nc21,"15.8 µM [rising, single point]"
6,c1ccc(Nc2nc(-c3cccs3)cs2)nc1,"12.6 µM [falling, single point]"
7,Cc1ccc(-c2nn3c(C)nnc3s2)cc1NC(=O)c1ccc(Br)o1,"12.6 µM [rising, partial curve]"
8,Brc1ccccc1-c1nc(-c2ccccc2)no1,"0.316 µM [rising, full curve]"
9,OCC1N=C(c2ccccn2)OC1c1ccccc1 (stereo not drawn),"0.126 µM [falling, full curve]"
10,COc1cccc(Cn2c(=O)c(-c3ccccc3)nc3cnc(N(C)C)nc32)c1,"1.58 µM [rising, full curve]"
11,O=C(CSc1nc2ccccc2[nH]1)Nc1cc(C(F)(F)F)ccc1N1CCOCC1,"12.6 µM [rising, partial curve]"
12,COc1ccc(-c2nc3cnc(N4CCNCC4)nc3n(-c3ccccc3)c2=O)cc1,"3.98 µM [rising, full curve]"
13,CC(=O)NS(=O)(=O)c1ccc(NC(=O)c2ccccc2F)cc1,"0.00398 µM [falling, full curve, poor fit]"
14,O=C(Oc1ccc2c3c(c(=O)oc2c1)CCCC3)c1ccco1,"15.8 µM [rising, partial curve]"
15,C[C@@H](NC(=O)/C(C#N)=C/c1ccc(O)c(O)c1)c1ccccc1,"25.1 µM [rising, partial curve]"
16,Clc1ccc2nc(NC3=NCN(CCN4CCOCC4)CN3)nc(-c3ccccc3)c2c1,"25.1 µM [rising, single point]"
17,COc1cc(-c2nnc(SCC(=O)c3cc(C)n(CC4CCCO4)c3C)o2)cc(OC)c1OC (stereo not drawn),"3.98 µM [rising, partial curve]"
18,CCOc1cc(C2NC(=O)NC(C)=C2C(=O)OCc2ccccc2)ccc1O (stereo not drawn),"12.6 µM [rising, single point]"
19,CNCC[C@H](Oc1ccccc1OC)c1ccccc1,"25.1 µM [falling, single point]"
20,OCCCN1c2ccccc2Nc2nnc(-c3ccccc3)cc21,"0.00794 µM [rising, full curve]"
21,CCOC(=O)Nc1nnc(-c2ccc(OC)c(OC)c2)s1,"10 µM [rising, single point]"
22,COC(=O)CSc1nnc(-c2cccc(NC(=O)c3ccc(C)cc3)c2)n1C,"0.00794 µM [rising, full curve, poor fit]"

# From PubChem BioAssay AID662 (National Center for Advancing Translational Sciences (NCATS), 2007)
